Results published in patent publication US10260060B2, “Genetically modified phenylpyruvate decarboxylase, processes to prepare, and uses thereof” (Dow Global Technologies LLC, priority 2014, dated 2019).
For at least one compound, name, drawing or mass did not settle the structure.

Target: T1, Azospirillum brasilense phenylpyruvate decarboxylase (AbPPDC), wild type, SEQ ID 4 (GenBank L26240), 13-amino acid N-terminal histidine tag (Azospirillum brasilense, UniProt P51852)
T1 construct: made in house; host or cells: E. coli BL21(DE3)
T1 sequence (P51852 1-545): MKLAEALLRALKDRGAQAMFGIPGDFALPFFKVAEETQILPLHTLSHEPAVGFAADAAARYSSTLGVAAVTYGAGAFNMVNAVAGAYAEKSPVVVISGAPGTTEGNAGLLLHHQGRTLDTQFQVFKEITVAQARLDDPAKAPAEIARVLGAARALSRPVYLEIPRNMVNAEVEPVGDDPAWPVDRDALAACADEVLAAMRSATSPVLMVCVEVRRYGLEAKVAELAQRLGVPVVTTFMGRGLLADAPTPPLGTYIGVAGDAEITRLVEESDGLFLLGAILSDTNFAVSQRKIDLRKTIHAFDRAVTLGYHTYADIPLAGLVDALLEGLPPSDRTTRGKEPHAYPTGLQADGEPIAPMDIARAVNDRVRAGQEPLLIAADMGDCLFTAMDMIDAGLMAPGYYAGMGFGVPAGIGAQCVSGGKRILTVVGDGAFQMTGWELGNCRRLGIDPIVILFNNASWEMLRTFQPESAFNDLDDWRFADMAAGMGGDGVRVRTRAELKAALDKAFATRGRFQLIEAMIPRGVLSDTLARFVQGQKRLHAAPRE
Test: HTP AbPPDC coupled enzyme assay (ADH6/NADPH), 2-ketoacid decarboxylation kinetics, wild type
Format: biochemical
Settings: pH 6.8, 30° C, Hill equation; mean ± standard error
Procedure: The evaluation of the AbPPDC variants is performed in two steps using the high-throughput enzyme assay described hereinbelow. Initially, all the variants are tested for activity against a single high concentration (2 mM) of 2-KH and 2-KN (as shown in Table 1). Following the initial evaluation, detailed kinetic analysis is performed on a select number of variants to determine the maximal rate (kcat), substrate concentration yielding half maximal rate (K0.5, equivalent of KM for enzymes following Michaelis-Menten kinetics), and the catalytic efficiency of the enzyme (kcat/K0.5) against 2-KO and 2-KN (as shown in Table 2). AbPPDC variants, having higher specificity (higher kcat/K0.5) for 2-KN, will be efficient in producing octanal and chemicals derived from it inside the cells. […]
A high-throughput AbPPDC coupled enzyme assay is developed for evaluating the substrate specificity of AbPPDC variants. […] The initial velocities of the AbPPDC catalyzed reactions are determined from the rates of oxidation of reduced nicotinamide adenine dinucleotide phosphate (NADPH) occurring during the ADH6 catalyzed reduction of aldehyde. […]
The kinetic parameters of the decarboxylation of 2-ketooctanoate (2-KO) and 2-ketononanoate (2-KN) by AbPPDC and its variants are also determined using the same HTP AbPPDC coupled enzyme assay, except that the concentrations of 2-KO or 2-KN are varied from 0 to 4 mM. […]

In the case of `CCCCCCCC(=O)C(=O)O` [2-KN, 2-ketononanoate], the “h (Hill coefficient)” value was 2.1 ± 0.1.
